Measured values as given in PubChem BioAssay AID250 (DTP/NCI, 2004).
The list does not hold the whole screen: it gathers some chemical classes. Other doses and runs of a compound may be missing. T/C gives the treated animals as a percentage of the vehicle group. For survival time, this PubChem deposit counts one and a half times the control or more as active, and values a quarter to a half above the control carry no call in these data; other NCI protocols may use other cut-offs. Some entries show no survivor count and are marked so; the dose need not have been tolerated. Schedule codes are those of the source, read here as Q, the interval in days (D) or hours (H), X, the number of doses. Some schedules carry Z or #; the key to these is not given. Some entries hold several experiments; the values are given in rising order.

Assays:
[1] = test system: BDF1 mice, L1210 leukemia sc; assay: NCI In Vivo Anticancer Drug Screen. Data for tumor model L1210 Leukemia (subcutaneous) in B6D2F1 (BDF1) mice; settings: T/C endpoint: median survival time, schedule: Q01DX Z (sc), higher T/C = longer survival
Method: (§1) The antitumor activity of compounds was measured in mice bearing transplantable tumors. Survival or tumor size were measured and the results are expressed as the measurement made in the treated group (T) divided by the measurement made in the vehicle treated control group (C). The tumor model used in this assay is L1210 Leukemia (subcutaneous) in B6D2F1 (BDF1) mice

[2] = test system: BDF1 mice, L1210 leukemia sc, survival T/C; assay: as above; settings: T/C endpoint: median survival time, higher T/C = longer survival
Method: as §1

For `CN(CCCl)CCCl`, the T/C ([1]; dose: 1.3 mg/kg/injection, vehicle: saline) was 125 % of control [survivor count not shown], the T/C ([1]; dose: 1.8 mg/kg/injection, vehicle: saline) was 127 % of control [survivor count not shown] and the T/C ([1]; dose: 2.16 mg/kg/injection, vehicle: saline) was 125 % of control [survivor count not shown]. The T/C ([1]; dose: 3.0 mg/kg/injection, vehicle: saline) was 133 % of control [survivor count not shown], the T/C ([1]; dose: 3.0 mg/kg/injection, vehicle: water) was 130 % of control [survivor count not shown] and the T/C ([2]; dose: 0.06 mg/kg/injection, schedule: Q01DX009 (ip), vehicle: saline) was 95 % of control [survivor count not shown]. The T/C ([2]; dose: 0.12 mg/kg/injection, schedule: Q01DX009 (ip), vehicle: saline) was 100 % of control [survivor count not shown], the T/C ([2]; dose: 0.23 mg/kg/injection, schedule: Q01DX Z (sc), vehicle: methylcellulose (MC)) was 109 % of control [survivor count not shown] and the T/C ([2]; dose: 0.25 mg/kg/injection, schedule: Q01DX009 (ip), vehicle: saline) was 90 % of control [survivor count not shown]. For the same compound, the T/C ([2]; dose: 0.39 mg/kg/injection, schedule: Q01DX Z (sc), vehicle: methylcellulose (MC)) was 100 % of control [survivor count not shown], the T/C ([2]; dose: 0.39 mg/kg/injection, schedule: Q01DX Z (sc), vehicle: other) was 100 % of control [survivor count not shown] and the T/C ([2]; dose: 0.39 mg/kg/injection, schedule: Q01DX Z (sc), vehicle: saline) was 104 % of control [survivor count not shown]. The T/C ([2]; dose: 0.39 mg/kg/injection, schedule: Q01DX Z (sc), vehicle: water) was 100 % of control [survivor count not shown], the T/C ([2]; dose: 0.47 mg/kg/injection, schedule: Q01DX Z (sc), vehicle: saline) was 112 % of control [survivor count not shown] and the T/C ([2]; dose: 0.5 mg/kg/injection, schedule: Q01DX009 (ip), vehicle: saline) was 105 % of control [survivor count not shown]. The T/C ([2]; dose: 0.5 mg/kg/injection, schedule: Q01DX009 (sc), vehicle: saline) was 107 % of control [survivor count not shown], the T/C ([2]; dose: 0.65 mg/kg/injection, schedule: Q01DX Z (sc), vehicle: methylcellulose (MC)) was 104 % of control [survivor count not shown] and the T/C ([2]; dose: 0.65 mg/kg/injection, schedule: Q01DX Z (sc), vehicle: other) was 100 % of control [survivor count not shown]. For the same compound, the T/C ([2]; dose: 0.65 mg/kg/injection, schedule: Q01DX Z (sc), vehicle: saline) was 100 % of control [survivor count not shown], the T/C ([2]; dose: 0.65 mg/kg/injection, schedule: Q01DX Z (sc), vehicle: water) was 105 % of control [survivor count not shown] and the T/C ([2]; dose: 1.0 mg/kg/injection, schedule: Q01DX009 (sc), vehicle: saline) was 113 % of control [survivor count not shown]. The T/C ([2]; dose: 1.08 mg/kg/injection, schedule: Q01DX Z (sc), vehicle: methylcellulose (MC)) was 109 % of control [survivor count not shown], the T/C ([2]; dose: 1.08 mg/kg/injection, schedule: Q01DX Z (sc), vehicle: other) was 105 % of control [survivor count not shown] and the T/C ([2]; dose: 1.08 mg/kg/injection, schedule: Q01DX Z (sc), vehicle: saline) was 109 [survivor count not shown] and 122 % of control [survivor count not shown]. The T/C ([2]; dose: 1.08 mg/kg/injection, schedule: Q01DX Z (sc), vehicle: water) was 105 % of control [survivor count not shown], the T/C ([2]; dose: 1.3 mg/kg/injection, schedule: Q01DX Z (iv), vehicle: saline) was 118 % of control [survivor count not shown] and the T/C ([2]; dose: 1.8 mg/kg/injection, schedule: Q01DX Z (sc), vehicle: methylcellulose (MC)) was 113 % of control [survivor count not shown]. For the same compound, the T/C ([2]; dose: 1.8 mg/kg/injection, schedule: Q01DX Z (sc), vehicle: other) was 100 % of control [survivor count not shown], the T/C ([2]; dose: 1.8 mg/kg/injection, schedule: Q01DX Z (sc), vehicle: saline) was 118 % of control [survivor count not shown] and the T/C ([2]; dose: 1.8 mg/kg/injection, schedule: Q01DX Z (sc), vehicle: water) was 110 % of control [survivor count not shown]. For the same compound, the T/C ([2]; dose: 2.0 mg/kg/injection, schedule: Q01DX009 (sc), vehicle: saline) was 116 % of control [survivor count not shown], the T/C ([2]; dose: 3.0 mg/kg/injection, schedule: Q01DX Z (sc), vehicle: methylcellulose (MC)) was 118 % of control [survivor count not shown] and the T/C ([2]; dose: 3.0 mg/kg/injection, schedule: Q01DX Z (sc), vehicle: other) was 105 % of control [survivor count not shown]. For the same compound, the T/C ([2]; dose: 3.0 mg/kg/injection, schedule: Q01DX Z (sc), vehicle: saline) was 118 % of control [survivor count not shown], the T/C ([2]; dose: 4.0 mg/kg/injection, schedule: Q01DX009 (sc), vehicle: saline) was 103 % of control [survivor count not shown] and the T/C ([2]; dose: 5.0 mg/kg/injection, schedule: Q01DX Z (sc), vehicle: methylcellulose (MC)) was 109 % of control [survivor count not shown]. The T/C ([2]; dose: 5.0 mg/kg/injection, schedule: Q01DX Z (sc), vehicle: other) was 110 % of control [survivor count not shown], the T/C ([2]; dose: 5.0 mg/kg/injection, schedule: Q01DX Z (sc), vehicle: saline) was 118 % of control [survivor count not shown] and the T/C ([2]; dose: 5.0 mg/kg/injection, schedule: Q01DX Z (sc), vehicle: water) was 120 % of control [survivor count not shown]. The T/C ([2]; dose: 6.0 mg/kg/injection, schedule: Q01DX Z (oral), vehicle: saline) was 112 % of control [survivor count not shown], the T/C ([2]; dose: 8.0 mg/kg/injection, schedule: Q01DX009 (sc), vehicle: saline) was 103 % of control [survivor count not shown] and the T/C ([2]; dose: 8.4 mg/kg/injection, schedule: Q01DX Z (sc), vehicle: methylcellulose (MC)) was 109 % of control [survivor count not shown]. For the same compound, the T/C ([2]; dose: 8.4 mg/kg/injection, schedule: Q01DX Z (sc), vehicle: saline) was 118 % of control [survivor count not shown].
